Results are given in words; binding and its absence hold for the method and conditions named. For some of these results: In cells and extracts the contact can be indirect. Some binding calls cover weakened binding; strength is not graded here. For some of these results: Tags and fused reporters may be left off the sequences shown. One block for each molecule: values may come before it.
How the values were obtained:
[1] = target: FLAG-SINTBAD (HeLa) (human) (UniProt A7MCY6); test: co-IP; FLAG-tagged constructs expressed in HeLa cells, immunoprecipitated, endogenous FIP200 detected
[2] = target: T1, NDP52 (yeast two-hybrid bait; also found as prey clones) (human) (UniProt Q13137); test: two-hybrid; yeast two-hybrid screen with NDP52 as bait, ProQuest Two-Hybrid System; 42 clones analyzed
T1 sequence: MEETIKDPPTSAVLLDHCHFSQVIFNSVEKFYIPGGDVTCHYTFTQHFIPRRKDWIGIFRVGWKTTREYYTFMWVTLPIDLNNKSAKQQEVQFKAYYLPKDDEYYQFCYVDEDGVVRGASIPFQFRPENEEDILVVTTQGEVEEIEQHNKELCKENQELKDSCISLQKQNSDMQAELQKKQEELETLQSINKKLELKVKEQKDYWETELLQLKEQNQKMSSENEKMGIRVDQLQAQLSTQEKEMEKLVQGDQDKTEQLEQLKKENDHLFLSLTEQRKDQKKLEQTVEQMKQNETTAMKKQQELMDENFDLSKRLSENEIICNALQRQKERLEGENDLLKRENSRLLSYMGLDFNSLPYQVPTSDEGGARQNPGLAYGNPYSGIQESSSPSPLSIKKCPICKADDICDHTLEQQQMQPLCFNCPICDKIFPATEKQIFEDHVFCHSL

By UniProt entry, the sequences of proteins in these tests, tags left out. Where a name states a change or a piece, a line headed by the entry shows the natural chain unless it says otherwise. Chains listed by the source or under a name are the forms on record and can include a tag or linker. Residues count along the entry.
UniProt A7MCY6: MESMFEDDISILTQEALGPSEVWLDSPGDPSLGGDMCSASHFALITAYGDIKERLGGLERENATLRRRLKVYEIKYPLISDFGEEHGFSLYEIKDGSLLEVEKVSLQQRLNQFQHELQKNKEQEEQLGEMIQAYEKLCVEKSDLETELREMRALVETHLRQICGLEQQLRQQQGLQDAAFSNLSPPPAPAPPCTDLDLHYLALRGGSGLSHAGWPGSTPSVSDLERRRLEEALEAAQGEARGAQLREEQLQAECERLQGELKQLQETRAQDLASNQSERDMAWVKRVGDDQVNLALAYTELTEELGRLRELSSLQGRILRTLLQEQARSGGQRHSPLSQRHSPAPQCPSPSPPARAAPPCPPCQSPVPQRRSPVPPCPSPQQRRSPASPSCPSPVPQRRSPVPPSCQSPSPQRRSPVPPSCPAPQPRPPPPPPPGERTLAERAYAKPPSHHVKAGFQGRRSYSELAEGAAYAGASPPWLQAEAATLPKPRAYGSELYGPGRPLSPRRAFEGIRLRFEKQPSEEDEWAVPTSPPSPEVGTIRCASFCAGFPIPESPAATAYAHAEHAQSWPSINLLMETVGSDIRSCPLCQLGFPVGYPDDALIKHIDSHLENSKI
UniProt Q8TDY2: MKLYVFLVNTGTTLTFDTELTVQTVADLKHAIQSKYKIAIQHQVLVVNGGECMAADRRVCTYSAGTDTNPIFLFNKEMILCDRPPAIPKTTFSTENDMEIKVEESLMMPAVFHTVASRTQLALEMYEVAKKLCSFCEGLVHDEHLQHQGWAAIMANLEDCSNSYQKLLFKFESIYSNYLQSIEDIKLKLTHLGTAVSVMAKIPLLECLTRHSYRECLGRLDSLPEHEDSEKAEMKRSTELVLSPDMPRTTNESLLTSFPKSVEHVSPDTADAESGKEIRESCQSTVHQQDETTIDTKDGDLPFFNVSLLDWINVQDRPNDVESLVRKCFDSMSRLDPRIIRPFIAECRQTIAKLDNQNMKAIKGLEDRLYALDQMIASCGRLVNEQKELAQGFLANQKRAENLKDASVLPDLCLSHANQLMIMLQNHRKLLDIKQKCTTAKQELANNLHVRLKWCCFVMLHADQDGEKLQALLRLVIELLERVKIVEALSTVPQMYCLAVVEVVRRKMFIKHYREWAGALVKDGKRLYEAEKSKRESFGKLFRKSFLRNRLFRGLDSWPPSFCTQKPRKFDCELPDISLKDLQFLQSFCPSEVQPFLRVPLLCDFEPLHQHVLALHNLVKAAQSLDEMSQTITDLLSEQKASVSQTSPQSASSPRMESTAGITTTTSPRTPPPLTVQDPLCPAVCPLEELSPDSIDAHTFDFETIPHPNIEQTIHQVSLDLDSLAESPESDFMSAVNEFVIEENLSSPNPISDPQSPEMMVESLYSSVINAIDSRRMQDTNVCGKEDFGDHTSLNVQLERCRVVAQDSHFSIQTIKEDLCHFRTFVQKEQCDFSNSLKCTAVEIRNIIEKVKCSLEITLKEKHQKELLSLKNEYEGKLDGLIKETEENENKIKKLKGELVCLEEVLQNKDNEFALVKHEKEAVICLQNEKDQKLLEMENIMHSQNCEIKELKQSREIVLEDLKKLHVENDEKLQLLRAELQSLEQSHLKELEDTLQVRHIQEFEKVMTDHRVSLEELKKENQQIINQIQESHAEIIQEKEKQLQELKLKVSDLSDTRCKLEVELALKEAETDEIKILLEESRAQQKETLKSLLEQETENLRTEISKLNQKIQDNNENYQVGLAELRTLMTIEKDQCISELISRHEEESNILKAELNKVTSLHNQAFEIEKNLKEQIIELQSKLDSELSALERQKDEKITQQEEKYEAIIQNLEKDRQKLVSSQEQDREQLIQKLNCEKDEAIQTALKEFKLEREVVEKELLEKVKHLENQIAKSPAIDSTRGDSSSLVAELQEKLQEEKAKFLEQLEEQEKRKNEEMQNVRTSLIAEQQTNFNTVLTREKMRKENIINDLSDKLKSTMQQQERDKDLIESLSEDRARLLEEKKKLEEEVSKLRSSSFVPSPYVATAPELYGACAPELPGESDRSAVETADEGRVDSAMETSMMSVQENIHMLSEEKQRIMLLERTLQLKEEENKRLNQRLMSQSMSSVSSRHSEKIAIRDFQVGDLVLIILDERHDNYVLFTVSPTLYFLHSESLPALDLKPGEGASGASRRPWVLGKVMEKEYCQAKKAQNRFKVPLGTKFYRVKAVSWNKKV
GST-FIP200ΔN1115: residues 1116-1594 of Q8TDY2
FIP200ΔN1441 (purified, tag cleaved): residues 1442-1594 of Q8TDY2

[3] = target: FIP200ΔN1441 (purified, tag cleaved) (human) (UniProt Q8TDY2); test: HDX-MS; 5 μM FIP200ΔN1441 alone or with 10 μM NDP52 aa20-127 and 10 μM SINTBAD aa6-85 together, 1 h at 23°C, 20 mM Tris pH 7.5, 150 mM NaCl, 1 mM DTT; exchange 0.3, 3 and 30 s; both purified
GST-FIP200ΔN1115 (human) = GST-FIP200ΔN1115 (human) (UniProt Q8TDY2); test: pull-down; GST-based LUMIER: GST fusion from E. coli immobilised on glutathione 4b Sepharose beads, incubated with lysate of transfected HEK293ET cells expressing the Renilla luciferase-tagged protein, 2 h at 4°C, four washes, eluted with 20 mM glutathione, luciferase activity as fold binding against GST only; only the target purified
GST:NDP52 (human) = target: T2, GST:NDP52 (human) (UniProt Q13137); test: as above
T2 sequence: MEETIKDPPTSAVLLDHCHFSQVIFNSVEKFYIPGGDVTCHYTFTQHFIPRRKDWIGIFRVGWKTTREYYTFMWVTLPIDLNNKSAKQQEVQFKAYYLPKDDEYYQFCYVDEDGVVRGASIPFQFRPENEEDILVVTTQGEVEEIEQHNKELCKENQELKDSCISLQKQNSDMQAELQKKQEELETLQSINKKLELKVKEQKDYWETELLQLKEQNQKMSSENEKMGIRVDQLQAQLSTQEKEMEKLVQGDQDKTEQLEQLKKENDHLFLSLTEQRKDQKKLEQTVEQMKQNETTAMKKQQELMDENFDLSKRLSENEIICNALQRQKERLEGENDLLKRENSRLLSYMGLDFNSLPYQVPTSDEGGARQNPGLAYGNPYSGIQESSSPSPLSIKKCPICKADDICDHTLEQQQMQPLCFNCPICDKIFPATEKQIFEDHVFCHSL

[4] = target: T3, NDP52 (yeast two-hybrid bait; also found as prey clones) (human), Q13137; test: two-hybrid; yeast two-hybrid screen with NDP52 as bait, ProQuest Two-Hybrid System; 42 clones analyzed; conditions: remark: other sources report otherwise
T3 chain: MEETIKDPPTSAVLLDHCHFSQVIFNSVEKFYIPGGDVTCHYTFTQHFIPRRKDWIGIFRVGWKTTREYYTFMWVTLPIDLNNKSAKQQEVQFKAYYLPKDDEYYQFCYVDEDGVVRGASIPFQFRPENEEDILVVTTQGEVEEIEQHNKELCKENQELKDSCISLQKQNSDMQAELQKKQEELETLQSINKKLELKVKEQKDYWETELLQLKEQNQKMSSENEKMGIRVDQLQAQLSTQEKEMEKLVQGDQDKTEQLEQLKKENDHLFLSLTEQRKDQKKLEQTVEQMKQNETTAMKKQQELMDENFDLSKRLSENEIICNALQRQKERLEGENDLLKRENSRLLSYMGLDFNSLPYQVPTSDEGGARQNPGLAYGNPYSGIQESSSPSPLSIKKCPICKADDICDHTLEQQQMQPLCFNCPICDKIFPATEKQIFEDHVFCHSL

B1: Luciferase-CALCOCO1 (protein, UniProt Q9P1Z2 1-691)
chain: MEESPLSRAPSRGGVNFLNVARTYIPNTKVECHYTLPPGTMPSASDWIGIFKVEAACVRDYHTFVWSSVPESTTDGSPIHTSVQFQASYLPKPGAQLYQFRYVNRQGQVCGQSPPFQFREPRPMDELVTLEEADGGSDILLVVPKATVLQNQLDESQQERNDLMQLKLQLEGQVTELRSRVQELERALATARQEHTELMEQYKGISRSHGEITEERDILSRQQGDHVARILELEDDIQTISEKVLTKEVELDRLRDTVKALTREQEKLLGQLKEVQADKEQSEAELQVAQQENHHLNLDLKEAKSWQEEQSAQAQRLKDKVAQMKDTLGQAQQRVAELEPLKEQLRGAQELAASSQQKATLLGEELASAAAARDRTIAELHRSRLEVAEVNGRLAELGLHLKEEKCQWSKERAGLLQSVEAEKDKILKLSAEILRLEKAVQEERTQNQVFKTELAREKDSSLVQLSESKRELTELRSALRVLQKEKEQLQEEKQELLEYMRKLEARLEKVADEKWNEDATTEDEEAAVGLSCPAALTDSEDESPEDMRLPPYGLCERGDPGSSPAGPREASPLVVISQPAPISPHLSGPAEDSSSDSEAEDEKSVLMAAVQSGGEEANLLLPELGSAFYDMASGFTVGTLSETSTGGPATPTWKECPICKERFPAESDKDALEDHMDGHFFFSTQDPFTFE
binding (GST-FIP200ΔN1115 (human)): no binding

B2: Luciferase-ULK2 (enzyme, UniProt Q8IYT8 1-1036)
chain: MEVVGDFEYSKRDLVGHGAFAVVFRGRHRQKTDWEVAIKSINKKNLSKSQILLGKEIKILKELQHENIVALYDVQELPNSVFLVMEYCNGGDLADYLQAKGTLSEDTIRVFLHQIAAAMRILHSKGIIHRDLKPQNILLSYANRRKSSVSGIRIKIADFGFARYLHSNMMAATLCGSPMYMAPEVIMSQHYDAKADLWSIGTVIYQCLVGKPPFQANSPQDLRMFYEKNRSLMPSIPRETSPYLANLLLGLLQRNQKDRMDFEAFFSHPFLEQGPVKKSCPVPVPMYSGSVSGSSCGSSPSCRFASPPSLPDMQHIQEENLSSPPLGPPNYLQVSKDSASTSSKNSSCDTDDFVLVPHNISSDHSCDMPVGTAGRRASNEFLVCGGQCQPTVSPHSETAPIPVPTQIRNYQRIEQNLTSTASSGTNVHGSPRSAVVRRSNTSPMGFLRPGSCSPVPADTAQTVGRRLSTGSSRPYSPSPLVGTIPEQFSQCCCGHPQGHDSRSRNSSGSPVPQAQSPQSLLSGARLQSAPTLTDIYQNKQKLRKQHSDPVCPSHTGAGYSYSPQPSRPGSLGTSPTKHLGSSPRSSDWFFKTPLPTIIGSPTKTTAPFKIPKTQASSNLLALVTRHGPAEEQSKDGNEPRECAHCLLVQGSERQRAEQQSKAVFGRSVSTGKLSDQQGKTPICRHQGSTDSLNTERPMDIAPAGACGGVLAPPAGTAASSKAVLFTVGSPPHSAAAPTCTHMFLRTRTTSVGPSNSGGSLCAMSGRVCVGSPPGPGFGSSPPGAEAAPSLRYVPYGASPPSLEGLITFEAPELPEETLMEREHTDTLRHLNVMLMFTECVLDLTAMRGGNPELCTSAVSLYQIQESVVVDQISQLSKDWGRVEQLVLYMKAAQLLAASLHLAKAQIKSGKLSPSTAVKQVVKNLNERYKFCITMCKKLTEKLNRFFSDKQRFIDEINSVTAEKLIYNCAVEMVQSAALDEMFQQTEDIVYRYHKAALLLEGLSRILQDPADIENVHKYKCSIERRLSALCHSTATV
binding (GST:NDP52 (human)): no binding

B3: NDP52 (yeast two-hybrid bait; also found as prey clones), Q13137 1-446 (protein)
chain: MEETIKDPPTSAVLLDHCHFSQVIFNSVEKFYIPGGDVTCHYTFTQHFIPRRKDWIGIFRVGWKTTREYYTFMWVTLPIDLNNKSAKQQEVQFKAYYLPKDDEYYQFCYVDEDGVVRGASIPFQFRPENEEDILVVTTQGEVEEIEQHNKELCKENQELKDSCISLQKQNSDMQAELQKKQEELETLQSINKKLELKVKEQKDYWETELLQLKEQNQKMSSENEKMGIRVDQLQAQLSTQEKEMEKLVQGDQDKTEQLEQLKKENDHLFLSLTEQRKDQKKLEQTVEQMKQNETTAMKKQQELMDENFDLSKRLSENEIICNALQRQKERLEGENDLLKRENSRLLSYMGLDFNSLPYQVPTSDEGGARQNPGLAYGNPYSGIQESSSPSPLSIKKCPICKADDICDHTLEQQQMQPLCFNCPICDKIFPATEKQIFEDHVFCHSL
binding [4]: binds

B4: Luciferase-tagged TANK (protein, UniProt Q92844 1-425)
chain: MDKNIGEQLNKAYEAFRQACMDRDSAVKELQQKTENYEQRIREQQEQLSLQQTIIDKLKSQLLLVNSTQDNNYGCVPLLEDSETRKNNLTLDQPQDKVISGIAREKLPKVRRQEVSSPRKETSARSLGSPLLHERGNIEKTFWDLKEEFHKICMLAKAQKDHLSKLNIPDTATETQCSVPIQCTDKTDKQEALFKPQAKDDINRGAPSITSVTPRGLCRDEEDTSFESLSKFNVKFPPMDNDSTFLHSTPERPGILSPATSEAVCQEKFNMEFRDNPGNFVKTEETLFEIQGIDPIASAIQNLKTTDKTKPSNLVNTCIRTTLDRAACLPPGDHNALYVNSFPLLDPSDAPFPSLDSPGKAIRGPQQPIWKPFPNQDSDSVVLSGTDSELHIPRVCEFCQAVFPPSITSRGDFLRHLNSHFNGET
binding (GST-FIP200ΔN1115 (human)): no binding

Next, values leading:

binding [1]: binds
Molecule: endogenous full-length FIP200 (from UniProt Q8TDY2 1-1594)

binding [2]: binds
Molecule: SINTBAD (yeast two-hybrid prey clones) (from UniProt A7MCY6 1-615)

binding [3]: binds
Molecule: SINTBAD_(aa6-85) (purified, tag cleaved) (from UniProt A7MCY6 6-85) (domain or fragment)

— paper PMC6477152 (2019)
